Experimental findings from paper PMC4912631 are described below.

Amino acid sequences for entries named in this document (tags omitted). A change or cut given only in a name is not applied to a line headed by its entry. Chains listed by the source or under a name are the forms on record and can include a tag or linker. Residues count along the entry.
UniProt Q9ESJ0: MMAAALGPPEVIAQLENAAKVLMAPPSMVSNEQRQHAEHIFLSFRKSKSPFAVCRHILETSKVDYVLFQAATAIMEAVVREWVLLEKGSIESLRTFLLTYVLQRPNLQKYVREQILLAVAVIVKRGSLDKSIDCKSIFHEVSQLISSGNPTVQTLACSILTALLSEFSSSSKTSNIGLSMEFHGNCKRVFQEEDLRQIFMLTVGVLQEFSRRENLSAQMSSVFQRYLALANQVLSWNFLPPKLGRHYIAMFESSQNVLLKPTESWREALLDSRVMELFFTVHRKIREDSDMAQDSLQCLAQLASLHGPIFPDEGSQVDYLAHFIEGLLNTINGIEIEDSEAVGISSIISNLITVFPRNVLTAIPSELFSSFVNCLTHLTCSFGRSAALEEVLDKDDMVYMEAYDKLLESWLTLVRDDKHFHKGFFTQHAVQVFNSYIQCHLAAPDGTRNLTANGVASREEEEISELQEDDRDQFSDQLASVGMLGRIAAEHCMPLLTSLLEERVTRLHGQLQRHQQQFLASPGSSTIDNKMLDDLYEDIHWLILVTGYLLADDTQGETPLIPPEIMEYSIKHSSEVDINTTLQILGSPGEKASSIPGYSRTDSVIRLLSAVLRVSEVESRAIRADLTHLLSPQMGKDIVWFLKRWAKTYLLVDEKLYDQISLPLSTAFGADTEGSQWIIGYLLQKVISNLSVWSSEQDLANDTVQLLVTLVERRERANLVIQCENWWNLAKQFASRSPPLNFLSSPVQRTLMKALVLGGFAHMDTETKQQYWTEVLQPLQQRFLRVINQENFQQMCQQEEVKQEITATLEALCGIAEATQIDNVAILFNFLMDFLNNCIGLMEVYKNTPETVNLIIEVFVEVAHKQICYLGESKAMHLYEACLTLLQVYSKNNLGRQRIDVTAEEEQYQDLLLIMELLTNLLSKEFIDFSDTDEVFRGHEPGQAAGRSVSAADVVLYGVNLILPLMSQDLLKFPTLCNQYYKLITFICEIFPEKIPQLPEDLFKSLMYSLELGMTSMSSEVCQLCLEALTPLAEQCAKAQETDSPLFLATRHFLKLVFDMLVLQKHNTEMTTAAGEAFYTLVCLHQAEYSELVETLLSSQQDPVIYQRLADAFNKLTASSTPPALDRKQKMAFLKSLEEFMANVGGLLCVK
UniProt P63241: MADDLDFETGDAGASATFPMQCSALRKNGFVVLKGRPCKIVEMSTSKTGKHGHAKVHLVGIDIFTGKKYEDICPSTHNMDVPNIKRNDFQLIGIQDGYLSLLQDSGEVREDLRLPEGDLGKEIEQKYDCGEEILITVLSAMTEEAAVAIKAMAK
ZZ-bdSUMO tagged (non-hypusinated) wild-type eIF5A (not stated (mammalian)): residues 15-151 of P63241
ZZ-bdSUMO tagged (non-hypusinated) eIF5A E42A (not stated (mammalian)) (P63241, form named): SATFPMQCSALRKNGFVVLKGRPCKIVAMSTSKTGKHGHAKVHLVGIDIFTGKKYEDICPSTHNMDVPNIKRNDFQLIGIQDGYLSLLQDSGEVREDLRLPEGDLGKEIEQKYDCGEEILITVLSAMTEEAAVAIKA

Assay [1] has as its target Xpo4 S631A (not stated (mammalian)) (UniProt Q9ESJ0). The assay is described as follows: pull-down; 1 μM Xpo4 wild type or mutants, 0.75 μM ZZ-bdNEDD8-tagged RanGTP, 1.25 μM hypusinated eIF5A, 100 mM NaCl buffer; retrieved via tagged Ran; eluted by bdNEDP1 protease; SDS-PAGE, Coomassie; both purified.
The target in assay [2] is Xpo4 D470N (not stated (mammalian)) (UniProt Q9ESJ0). The description is as above.
In assay [3] the target is Xpo4 E537Q (not stated (mammalian)) (UniProt Q9ESJ0). The assay is described as above.
The target in assay [4] is ZZ-bdSUMO tagged (non-hypusinated) eIF5A E42A (not stated (mammalian)) (UniProt P63241). As to the kind of experiment: pull-down; 1 μM untagged RanGTP and Xpo4 with 0.75 μM ZZ-bdSUMO tagged (non-hypusinated) wild-type or mutant eIF5A, 50 mM NaCl buffer; retrieved via tagged eIF5A; eluted by bdSENP1; SDS-PAGE, Coomassie; both purified.
The target in assay [5] is ZZ-bdSUMO tagged (non-hypusinated) wild-type eIF5A (not stated (mammalian)) (UniProt P63241). Described as above.

Results are given in words; binding and its absence hold for the method and conditions named. Some results given as binding are weak or reduced against the parent protein; the word gives no strength.

On to “eIF5A, full-length, hypusinated (from UniProt P63241 1-154)”, for which the binding entry is recorded as “no binding (tested: 1 μM Xpo4, 1.25 μM hypusinated eIF5A)” in assay [1]; “no binding (tested: 1 μM Xpo4, 1.25 μM hypusinated eIF5A)” in assay [2]; “no binding (tested: 1 μM Xpo4, 1.25 μM hypusinated eIF5A)” in assay [3].

As for “Xpo4 wild type (from UniProt Q9ESJ0 1-1151)”, the binding entry in assay [4] and in assay [5] was “binds” throughout.
